Measured data: PubChem BioAssay AID504804 (Drosophila RNAi Screening Center, 2011)
Aim: 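Knock-downs shielding fly cells from apoptosis caused by DNA damage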 (primary screen). System: Drosophila Kc cells. Reagents: long dsRNA against Drosophila genes, 0.5 µg dsRNA per well. Timing: 96 h (48 h knock-down, then 48 h drug). Conditions: doxorubicin 5 µg/ml for 48 h, added 48 h after dsRNA. Read-out: 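Viability measured as cellular ATP by luminescence after 48 h knock-down then 48 h doxorubicin at 5 µg/ml; unnormalised plate counts for each replicate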. Reading the numbers: raw ATP luminescence: higher = more viable cells, protection from doxorubicin. Call rule: 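Active when both duplicate wells lie at least 2 SD above the plate mean and protection is confirmed by rescreening and independent dsRNAs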.
The screen tested about 19,000 reagents; this is a random part of those with a known target gene and a result. Over the whole deposit, 47 (0.25%) are marked active. 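Signals are raw, not normalised; exact z-scores behind calls not deposited; actives needed confirmation, so some wells reaching 2 SD are inactive.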 A plus sign joins genes that one reagent is predicted to hit.

The opening 3 records, ahead of the listing:
target gene | amplicon | SD above plate mean | raw ATP luminescence, replicate 1 | raw ATP luminescence, replicate 2 | call
Bub1 (GeneID 33758) | DRSC02357 | – | 44370 | 19063 | inactive
Timp (GeneID 41248) | DRSC17082 | – | 49403 | 19583 | inactive
Imp (GeneID 32009) | DRSC18861 | – | 2.58e5 | 2.73e5 | inactive

The list itself, repeating the preview:
target gene | amplicon | SD above plate mean | raw ATP luminescence, replicate 1 | raw ATP luminescence, replicate 2 | call
Bub1 (GeneID 33758) | DRSC02357 | – | 44370 | 19063 | inactive
Timp (GeneID 41248) | DRSC17082 | – | 49403 | 19583 | inactive
Imp (GeneID 32009) | DRSC18861 | – | 2.58e5 | 2.73e5 | inactive
CG2017 (GeneID 40733) | DRSC12293 | – | 62577 | 20190 | inactive
CG15912 (GeneID 31385) | DRSC18105 | – | 43170 | 43490 | inactive
CG13699 (GeneID 40008) | DRSC10048 | – | 46080 | 48093 | inactive
tll (GeneID 43656) | DRSC17085 | – | 77190 | 47850 | inactive
Ada (GeneID 41092) | DRSC14463 | – | 54443 | 63737 | inactive
Cpr76Bb (GeneID 40121) | DRSC11061 | – | 74260 | 68697 | inactive
euc (GeneID 42271) | DRSC14492 | – | 38140 | 32460 | inactive
CG15743 (GeneID 32279) | DRSC19709 | – | 3.60e5 | 3.63e5 | inactive
Nak (GeneID 35154) | DRSC03379 | – | 1.35e5 | 83810 | inactive
Cyp4d21 (GeneID 34036) | DRSC03305 | – | 1.11e5 | 70527 | inactive
CCT7 (GeneID 41054) | DRSC16410 | – | 55117 | 52583 | inactive
Best2 (GeneID 38727) | DRSC09712 | – | 80397 | 94090 | inactive
Vang (GeneID 35922) | DRSC07570 | – | 42513 | 68113 | inactive
Lcp65Ae (GeneID 45018) | DRSC11212 | – | 85507 | 97623 | inactive
CG33630 (GeneID 3772504) | DRSC14546 | – | 58240 | 49113 | inactive
CG17105 (GeneID 34466) | DRSC02574 | – | 36580 | 62973 | inactive
Daao2 (GeneID 33955) | DRSC02135 | – | 1.06e5 | 76197 | inactive
Tsp42Ej (GeneID 35620) | DRSC06113 | – | 62820 | 73870 | inactive
Ugt303B2 (GeneID 42776) | DRSC14198 | – | 69500 | 61820 | inactive
Gem4b + Gem4c | DRSC17294 | – | 1.90e5 | 1.69e5 | inactive
Chrac-16 (GeneID 32166) | DRSC20343 | – | 2.61e5 | 2.32e5 | inactive
Prosap (GeneID 50225) | DRSC07081 | – | 89103 | 49003 | inactive
Cyp49a1 (GeneID 36105) | DRSC06737 | – | 60947 | 84903 | inactive
Cyp49a1 (GeneID 36105) | DRSC07367 | – | 63917 | 77737 | inactive
beat-IIIb (GeneID 35031) | DRSC02435 | – | 79823 | 77747 | inactive
gbb (GeneID 37778) | DRSC04687 | – | 58583 | 45290 | inactive
ey (GeneID 43812) | DRSC17173 | – | 42460 | 46440 | inactive
CG9521 (GeneID 32414) | DRSC20196 | – | 3.61e5 | 3.09e5 | inactive
CG9377 (GeneID 34743) | DRSC03217 | – | 1.01e5 | 55683 | inactive
bmm (GeneID 39611) | DRSC10502 | – | 23200 | 25797 | inactive
CG11664 (GeneID 31033) | DRSC18650 | – | 52230 | 50710 | inactive
CG12909 (GeneID 36087) | DRSC06224 | – | 38917 | 93000 | inactive
CG5388 (GeneID 42612) | DRSC15789 | – | 62900 | 59490 | inactive
egh (GeneID 31239) | DRSC18771 | at least 2 SD above plate mean | 79970 | 78710 | inactive
mfr (GeneID 39016) | DRSC10543 | – | 71207 | 76067 | inactive
CG32944 (GeneID 40560) | DRSC12138 | – | 61550 | 55220 | inactive
CG32944 (GeneID 40560) | DRSC12341 | – | 65550 | 68913 | inactive
CG13713 (GeneID 59233) | DRSC08322 | – | 82153 | 99047 | inactive
CG34034 (GeneID 3885584) | DRSC13506 | – | 2.39e5 | 2.21e5 | inactive
p38b (GeneID 34780) | DRSC03586 | – | 75243 | 79127 | inactive
ninaD (GeneID 326160) | DRSC02886 | – | 67100 | 63807 | inactive
Pgant9 (GeneID 246627) | DRSC05621 | – | 1.06e5 | 1.17e5 | inactive
CG14218 (GeneID 32949) | DRSC19575 | – | 3.30e5 | 3.38e5 | inactive
qvr (GeneID 2768718) | DRSC05280 | – | 75567 | 73920 | inactive
CG15144 (GeneID 35063) | DRSC02445 | – | 94913 | 81753 | inactive
CG13585 (GeneID 37918) | DRSC04221 | – | 52317 | 52690 | inactive
CG41020 (retired record) (GeneID 5740564) | DRSC20866 | – | 2.05e5 | 1.95e5 | inactive
Cht8 (GeneID 37390) | DRSC04546 | – | 58097 | 37173 | inactive
dia (GeneID 35340) | DRSC03519 | – | 72840 | 74433 | inactive
CG3803 (GeneID 37809) | DRSC04420 | – | 41783 | 62550 | inactive
Klp67A (GeneID 39068) | DRSC11205 | – | 75477 | 63153 | inactive
CG13594 (GeneID 37940) | DRSC04229 | – | 32013 | 33763 | inactive
alphaTub67C (GeneID 39130) | DRSC11321 | – | 69797 | 56323 | inactive
Adck1 (GeneID 37938) | DRSC04394 | – | 63577 | 57947 | inactive
CheB38c (GeneID 35346) | DRSC02389 | – | 59740 | 53813 | inactive
CG9391 (GeneID 40346) | DRSC11858 | – | 59037 | 52350 | inactive
Prosbeta2 (GeneID 39628) | DRSC11257 | – | 23760 | 29063 | inactive
Arf4 (GeneID 43823) | DRSC17195 | – | 68110 | 75810 | inactive
ChLD3 (GeneID 35002) | DRSC02640 | – | 72120 | 64643 | inactive
bnk (GeneID 43687) | DRSC16912 | – | 50570 | 44400 | inactive
Irk2 (GeneID 42770) | DRSC15569 | – | 33520 | 41873 | inactive
Ir75c (GeneID 39983) | DRSC10190 | – | 94703 | 63063 | inactive
Arf1 (GeneID 40506) | DRSC11606 | – | 28073 | 34607 | inactive
CG8476 (GeneID 41624) | DRSC16426 | – | 76250 | 63060 | inactive
CG16854 (GeneID 34539) | DRSC02536 | – | 47660 | 83563 | inactive
brat (GeneID 35197) | DRSC03497 | – | 79637 | 68393 | inactive
Tmtc3 (GeneID 37401) | DRSC04444 | at least 2 SD above plate mean | 95133 | 88617 | inactive
tinc (GeneID 42148) | DRSC14798 | – | 49880 | 48900 | inactive
tinc (GeneID 42148) | DRSC14799 | – | 48120 | 46300 | inactive
tinc (GeneID 42148) | DRSC16308 | – | 33050 | 34580 | inactive
tinc (GeneID 42148) | DRSC16309 | – | 58780 | 56580 | inactive
CG12662 (GeneID 31825) | DRSC17865 | – | 41140 | 43590 | inactive
Sema1a (GeneID 34192) | DRSC03433 | – | 41837 | 68837 | inactive
CG32855 (GeneID 318250) | DRSC13131 | – | 2.45e5 | 2.57e5 | inactive
ATPsynF (GeneID 37931) | DRSC04482 | – | 54267 | 56373 | inactive
rl (GeneID 3354888) | DRSC20742 | – | 3.30e5 | 3.17e5 | inactive
alphaSnap (GeneID 40233) | DRSC11285 | – | 36547 | 37277 | inactive
Coq3 (GeneID 35383) | DRSC03168 | – | 75423 | 63377 | inactive
Uggt (GeneID 40055) | DRSC11315 | – | 21257 | 27067 | inactive
CG16790 (GeneID 41155) | DRSC15156 | – | 61393 | 55093 | inactive
Cdc27 (GeneID 38798) | DRSC11112 | – | 36123 | 33290 | inactive
Rsph1 (GeneID 34712) | DRSC02864 | – | 83850 | 79510 | inactive
loqs (GeneID 34751) | DRSC02997 | – | 75130 | 64917 | inactive
CG18810 (GeneID 59171) | DRSC02701 | – | 56280 | 44950 | inactive
CG12481 (GeneID 32364) | DRSC19461 | – | 3.49e5 | 3.16e5 | inactive
Edg91 (GeneID 42117) | DRSC16657 | – | 92940 | 75630 | inactive
glob2 (GeneID 40807) | DRSC12560 | – | 58347 | 55660 | inactive
CG12923 (GeneID 36026) | DRSC06237 | – | 37277 | 86563 | inactive
CG11997 (GeneID 41093) | DRSC14464 | – | 66977 | 57413 | inactive
AstCC (GeneID 34538) | DRSC02404 | – | 44440 | 77773 | inactive
CG7058 (GeneID 32873) | DRSC20021 | – | 3.65e5 | 3.38e5 | inactive
Dop2R (GeneID 33007) | DRSC20683 | – | 3.70e5 | 3.48e5 | inactive
Dop2R (GeneID 33007) | DRSC20686 | – | 3.77e5 | 3.78e5 | inactive
FBXO11 (GeneID 41209) | DRSC16497 | – | 92443 | 31757 | inactive
CG3448 (GeneID 39094) | DRSC10368 | – | 92997 | 96130 | inactive
CG2772 (GeneID 33559) | DRSC00530 | – | 26167 | 35657 | inactive
CG42634 + CG42635 | DRSC02450 | – | 44340 | 54113 | inactive
Cdk2 (GeneID 42453) | DRSC16921 | – | 35713 | 35870 | inactive
CG5800 (GeneID 32742) | DRSC19962 | – | 2.00e5 | 1.73e5 | inactive
CG13028 (GeneID 2768967) | DRSC09908 | – | 95473 | 38497 | inactive
CtsK1 (GeneID 39547) | DRSC08742 | – | 56533 | 53933 | inactive
CG4306 (GeneID 40017) | DRSC10409 | – | 45880 | 34813 | inactive
CG15431 (GeneID 33646) | DRSC00446 | – | 27053 | 39543 | inactive
PolA1 (GeneID 42553) | DRSC16640 | – | 52560 | 41183 | inactive
